Measured values as given in patent US20180085400A1.
No constants are given. Whether binding was seen depends on the method and setting. Some binding calls cover weakened binding; strength is not graded here.

T1: human MICA protein (human) (UniProt Q29983)
T1 sequence (looked up): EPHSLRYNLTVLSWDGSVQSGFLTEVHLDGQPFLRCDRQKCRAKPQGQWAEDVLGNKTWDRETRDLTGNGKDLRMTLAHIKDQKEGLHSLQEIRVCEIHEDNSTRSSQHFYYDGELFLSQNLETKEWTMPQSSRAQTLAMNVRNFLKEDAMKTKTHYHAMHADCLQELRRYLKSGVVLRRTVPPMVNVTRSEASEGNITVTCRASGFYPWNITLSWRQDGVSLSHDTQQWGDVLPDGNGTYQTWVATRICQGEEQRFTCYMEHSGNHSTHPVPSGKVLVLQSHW


target: T1, human MICA protein (human); assay: selection from a non-immune human scFv yeast display library (MACS and flow cytometric sorting)

Row | binding | Binder
1 | binds | B2 scFv (scFv) scFv: QVQLQQSGPGLVKPSQTLSLTCAISGDSVSSNSAAWNWIRQSPSRGLEWLGRTYYRSKWYNDYAVSVKSRITINPDTSTNQFSLQLNSVTPDDTAVYYCAREGAHEWADAFDIWGQGTMVTVSSGILGSGGGGSGGGGSGGGGSDIQLTQSPSSLSASVGDRVTITCQASQDISNYLNWYQQKPGKAPKLLIYDASNLETGVPPRFSGSGSGTAFTFTISSLQPEDFATYYCQQYDNLPHTFGPGTKVDIKS
2 | binds | C8 scFv (scFv) scFv: EVQLMESGGGVVQPGGSLRLSCAGSGFTVSSNFMSWVRQAPGKGLEWVSLIYSDGSGGNTYYADSVKGRFTVSRDNSKNTLYLQMNSLREEDTALYYCARVSRRRSGRLFDLWGRGTLVTVSSGILGSGGGGSGGGGSGGGGSQSALTQPPSASGSPGQSVTISCTGTSSDVGGSNYVSWYQQHPGKVPKLIIYEVSKRPSGVPDRFSGSKSGNTASLTVSGLQAEDEADYYCSSYAGGKKVFGGGTKLTVLS
3 | binds | C25 scFv (scFv) scFv: QVQLQQSGPGLVKPSQTLSLTCAISGDSVSSNRGAWNWIRQSPSRGLEWLGRTYYRSRWINDYAVSVKSRITVNPDTSKNQFSLQLNSVTPEDTAVYYCARGQQERYDPWGQGTLVTVSSGSASAPTGILGSGGGGSGGGGSGGGGSSYVLTQPPSASGTPGQRVTISCSGSSSNIGRKGVYWFQQLPGTAPKVLIYGNNQRRSGVPDRFSGSRSGTSGSLAISGLRSEDEADYYCAAWDDSLNGPVFGGGTQLTVLS
4 | binds | C11 scFv (scFv) scFv: EVQLVESGGGLVQPGKSLKLSCEASGFTFSGYGMHWVRQAPGRGLESVAYITSSSINIKYADAVKGRFTVSRDNAKNLLFLQMNILKSEDTAMYYCARFDWDKNYWGQGTMVTVSSAGGGGSGGGGSGGGGSEFDIQMTQSPSSLPASLGDRVTINCQASQDISNYLNWYQQKPGKAPKLLIYYTNKLADGVPSRFSGSGSGRDSSFTISSLESEDIGSYYCQQYYNYPWTFGPGTKLEIKR
